Where a name gives a salt, the structure may show the parent alone. The list shows a part of the results. This is a noisy data set.
What follows are molecules tested on Peyronie's disease tunica albuginea primary fibroblasts (assay: inhibition of TGF-beta1-induced alpha-SMA expression (myofibroblast transformation), relative to TGF-beta1-only and untreated controls; higher = stronger inhibition of myofibroblast transformation). Conditions: 10 µM; TGF-beta1 10 ng/mL; 72 h.

SMILES | inhibition of TGF-beta1-induced alpha-SMA expression [%]
O=C(C1CCCCC1)N1CC(=O)N2CCc3ccccc3C2C1 (stereo unspecified) [Praziquantel] | 10.8
C[C@@H]1CCO[C@H]2Cn3cc(C(=O)NCc4ccc(F)cc4F)c(=O)c(O)c3C(=O)N12 | 9.46
CO[C@H]1/C=C/O[C@@]2(C)Oc3c(C)c(O)c4c(O)c(cc(O)c4c3C2=O)NC(=O)/C(C)=C\C=C\[C@H](C)[C@H](O)[C@@H](C)[C@@H](O)[C@@H](C)[C@H](OC(C)=O)[C@@H]1C [Rifamycin sodium salt] | 27.4
CCC/N=C1\S/C(=C\c2ccc(OC[C@H](O)CO)c(Cl)c2)C(=O)N1c1ccccc1C [Ponesimod] | 35.9
CC(C)C[C@H](NC(=O)[C@@H](NC(=O)c1cccc(-c2ccccc2)n1)[C@@H](C)O)B(O)O | > 100
COc1ccc2c(c1)c(CC(=O)O)c(C)n2C(=O)c1ccc(Cl)cc1 [Indomethacin] | 10.6
COc1ccc2c(c1)c(CC(=O)O)c(C)n2C(=O)c1ccc(Cl)cc1 [Indometacin Sodium] | 26.7
Nc1nc2ccc(OC(F)(F)F)cc2s1 [Riluzole] | -4
CN1CCC(=C2c3ccccc3CCc3cccnc32)CC1 [Azatadine dimaleate] | 38
CC(C)(C)NCC(O)COc1cccc2c1CCC(=O)N2 (stereo unspecified) [Carteolol HCl] | -13.2
CNC(=O)c1cc(Oc2ccc(NC(=O)Nc3ccc(Cl)c(C(F)(F)F)c3)c(F)c2)ccn1 [Regorafenib Monohydrate] | 90.8
CNC(=O)c1cc(Oc2ccc(NC(=O)Nc3ccc(Cl)c(C(F)(F)F)c3)c(F)c2)ccn1 [Regorafenib (BAY 73-4506)] | 34.1
CC(=O)NCCCS(=O)(=O)O [Acamprosate Calcium] | 24.9
O=C(O)c1cc(/N=N/c2ccc(O)c(C(=O)O)c2)ccc1O [Olsalazine Sodium] | -0.725
COCCCN1CCC(NC(=O)c2cc(Cl)c(N)c3c2OCC3)CC1 [Prucalopride] | 5.25
COCCCN1CCC(NC(=O)c2cc(Cl)c(N)c3c2OCC3)CC1 [Prucalopride Succinate] | 63
COC(=O)C1=C(C#N)NC(C)=C(C(=O)OC(C)C)C1c1cccc([N+](=O)[O-])c1 (stereo unspecified) [Nilvadipine] | 14.6
C[C@H](CCC(=O)O)[C@H]1CC[C@H]2[C@@H]3[C@@H](O)C[C@@H]4C[C@H](O)CC[C@]4(C)[C@H]3CC[C@]12C [Ursodiol] | 29.2
CC[C@H](C)[C@H](NC(=O)[C@H](Cc1ccc(O)cc1)NC(=O)[C@@H](NC(=O)[C@H](CCCN=C(N)N)NC(=O)[C@@H](N)CC(=O)O)C(C)C)C(=O)N[C@@H](Cc1cnc[nH]1)C(=O)N1CCC[C@H]1C(=O)N[C@@H](Cc1ccccc1)C(=O)O [Angiotensin II human Acetate] | 12
C[C@@H](O)[C@@H]1NC(=O)[C@H](CCCCN)NC(=O)[C@@H](Cc2c[nH]c3ccccc23)NC(=O)[C@H](Cc2ccccc2)NC(=O)[C@@H](NC(=O)[C@H](N)Cc2ccccc2)CSSC[C@@H](C(=O)N[C@H](CO)[C@@H](C)O)NC1=O [Octreotide Acetate] | 11.3
O=C(CCCN1CCN(c2ccccn2)CC1)c1ccc(F)cc1 [Azaperone] | 13.4
Nc1c2ccccc2nc2ccccc12 [9-Aminoacridine] | > 100

SMILES | inhibition of TGF-beta1-induced alpha-SMA expression [%]
Cc1ccc(=O)n(-c2ccccc2)c1 [Pirfenidone] | -1.57
CC(C)OC(=O)OCOP(=O)(CO[C@H](C)Cn1cnc2c(N)ncnc21)OCOC(=O)OC(C)C [Tenofovir Disoproxil Fumarate] | 15
CC(C)(CO)C(O)C(=O)NCCC(=O)O [Calcium D-Panthotenate] | > 100
Cc1c(-c2cnccn2)ssc1=S [Oltipraz] | 16.1
CCN(CC)CCNC(C(=O)OCCC(C)C)c1ccccc1 (stereo unspecified) [Camylofin Chlorhydrate] | 77.2
C[C@@H]1C[C@H]2[C@@H]3CCC4=CC(=O)C=C[C@]4(C)[C@@]3(F)[C@@H](O)C[C@]2(C)[C@@]1(O)C(=O)COP(=O)(O)O [Dexamethasone Sodium Phosphate] | 82
Cc1ccc(F)c(NC(=O)Nc2ccc(-c3cccc4[nH]nc(N)c34)cc2)c1 [Linifanib (ABT-869)] | 6.58
C[C@]12CC[C@@H]3c4ccc(OC(=O)c5ccccc5)cc4CC[C@H]3[C@@H]1CC[C@@H]2O [Estradiol Benzoate] | > 100
CN1CCN(C(c2ccccc2)c2ccccc2)CC1 [Cyclizine 2HCl] | 13.4
COC(=O)[C@@H]1CC2=CC(=O)CC[C@]2(C)[C@@]23O[C@@H]2C[C@@]2(C)[C@@H](CC[C@@]24CCC(=O)O4)[C@H]13 [Eplerenone] | 16.7
CC[C@H](CO)Nc1nc(NCc2ccccc2)c2ncn(C(C)C)c2n1 [Roscovitine (Seliciclib,CYC202)] | -12.3
OCCN(CCO)c1nc(N2CCCCC2)c2nc(N(CCO)CCO)nc(N3CCCCC3)c2n1 [Dipyridamole] | 40.2
C[N+](C)(C)CC(=O)O [Betaine] | 1.44
O=c1oc2c(O)c(O)cc3c(=O)oc4c(O)c(O)cc1c4c23 [Ellagic acid] | -0.583
CC(C)COc1ccc(CNC(=O)N(Cc2ccc(F)cc2)C2CCN(C)CC2)cc1 [Pimavanserin] | > 100
O=C1NS(=O)(=O)c2ccccc21 [Saccharin] | -4.74
CC(=O)c1cc2c(o1)C(=O)c1ccccc1C2=O [Napabucasin] | > 100
CCC(=O)O[C@@H]1CC(=O)O[C@H](C)C/C=C/C=C/[C@H](O)[C@H](C)C[C@H](CC=O)[C@H](O[C@@H]2O[C@H](C)[C@@H](O[C@H]3C[C@@](C)(O)[C@@H](OC(=O)CC)[C@H](C)O3)[C@H](N(C)C)[C@H]2O)[C@H]1OC [Midecamycin] | 0.345
CCN(CC)CC(=O)Nc1c(C)cccc1C [Lidocaine hydrochloride] | -4.67
CCN(CC)CC(=O)Nc1c(C)cccc1C [Lidocaine] | 9.45
CC(=O)OCC(=O)[C@@]12OC(C)(C)O[C@@H]1C[C@H]1[C@@H]3C[C@H](F)C4=CC(=O)C=C[C@]4(C)[C@@]3(F)[C@@H](O)C[C@@]12C [Fluocinonide] | 42.5
c1ccc2c(CC3=NCCN3)cccc2c1 [Naphazoline HCl] | -13.8

Retrieved one by one from above, two records:
SMILES | inhibition of TGF-beta1-induced alpha-SMA expression [%]
Nc1nc2ccc(OC(F)(F)F)cc2s1 [Riluzole] | -4
C[C@@H]1CCO[C@H]2Cn3cc(C(=O)NCc4ccc(F)cc4F)c(=O)c(O)c3C(=O)N12 | 9.46

(cont.)

SMILES | inhibition of TGF-beta1-induced alpha-SMA expression [%]
CN1C(CCl)Nc2cc(Cl)c(S(N)(=O)=O)cc2S1(=O)=O (stereo unspecified) [Methyclothiazide] | 36.4
C=CC1=C(C(=O)O)N2C(=O)[C@@H](NC(=O)/C(=N\O)c3csc(N)n3)[C@H]2SC1 [Cefdinir] | -14.6
CC(=O)NS(=O)(=O)c1ccc(N)cc1 [Sulfacetamide] | 15.6
CC(=O)NS(=O)(=O)c1ccc(N)cc1 [Sulfacetamide Sodium] | -9.54
CC(=O)NS(=O)(=O)c1ccc(N)cc1 [Sulfacetamide sodium salt hydrate] | 17.9
Cc1cn([C@H]2C=C[C@@H](CO)O2)c(=O)[nH]c1=O [Stavudine (d4T)] | 7.49
CC[C@H](C)[C@@H]1NC(=O)[C@H](Cc2ccc(O)cc2)NC(=O)[C@@H](N)CSSC[C@@H](C(=O)N2CCC[C@H]2C(=O)N[C@@H](CC(C)C)C(=O)NCC(N)=O)NC(=O)[C@H](CC(N)=O)NC(=O)[C@H](CCC(N)=O)NC1=O [Oxytocin (Syntocinon)] | 8.32
CC(=C(CCOC(=O)C(C)C)SSC(CCOC(=O)C(C)C)=C(C)N(C=O)Cc1cnc(C)nc1N)N(C=O)Cc1cnc(C)nc1N (stereo in doubt) [Sulbutiamine] | 4.47
CNC(=O)c1cc(Oc2ccc(NC(=O)Nc3ccc(Cl)c(C(F)(F)F)c3)cc2)ccn1 [Sorafenib] | 88.6
CNC(=O)c1cc(Oc2ccc(NC(=O)Nc3ccc(Cl)c(C(F)(F)F)c3)cc2)ccn1 [Sorafenib Tosylate] | -17.9
COc1cccc2c1C(=O)c1c(O)c3c(c(O)c1C2=O)C[C@@](O)(C(C)=O)C[C@@H]3O[C@H]1C[C@H](N)[C@H](O)[C@H](C)O1 [Daunorubicin HCl] | > 100
Cc1c(NC(=O)c2cccnc2)c(=O)n(-c2ccccc2)n1C [Nifenazone] | 3.62
CS(=O)(=O)OCCCCOS(C)(=O)=O [Busulfan] | 33.9
CC(O)Cn1cnc2c1c(=O)n(C)c(=O)n2C (stereo unspecified) [Proxyphylline] | 3.22
CO/N=C(\C(=O)N[C@@H]1C(=O)N2C(C(=O)[O-])=C(C[n+]3cccc4c3CCC4)CS[C@H]12)c1csc(N)n1 [Cefpirome sulfate] | 11.5
CC(C)NC[C@@H](O)COc1ccc(CC(N)=O)cc1 [(R)-(+)-Atenolol HCl] | 13.9
C[C@@H](O[C@H]1OCCN(Cc2nn(P(=O)(O)O)c(=O)[nH]2)[C@H]1c1ccc(F)cc1)c1cc(C(F)(F)F)cc(C(F)(F)F)c1 [Fosaprepitant dimeglumine salt] | 15.1
CCC(C)(Oc1ccc(C2(c3ccc(OC(C)(CC)C(=O)O)cc3)CCCCC2)cc1)C(=O)O (stereo unspecified) [Clinofibrate] | -5.13
COc1cc2nccc(Oc3ccc(NC(=O)NC4CC4)c(Cl)c3)c2cc1C(N)=O [lenvatinib Mesylate] | -46.8
COc1cc2nccc(Oc3ccc(NC(=O)NC4CC4)c(Cl)c3)c2cc1C(N)=O [Lenvatinib (E7080)] | -186
CC(C)(CO)c1cc2cc(NC(=O)C3(c4ccc5c(c4)OC(F)(F)O5)CC3)c(F)cc2n1C[C@@H](O)CO [Tezacaftor(VX-661)] | 32.3
CC[C@@H]1C(=O)OC[C@@H]1Cc1cncn1C [Pilocarpine HCl] | 24.4

From the supplement of paper PMC9744312
